We go through ten sequences from US7495088B1, “Modified nucleotide compounds” (Enzo Life Sciences, Inc., priority 1989, dated 2009).

The target of this data set is T1, RNase H (Escherichia coli) (UniProt P0A7Y4).
T1 sequence (looked up, limits assumed): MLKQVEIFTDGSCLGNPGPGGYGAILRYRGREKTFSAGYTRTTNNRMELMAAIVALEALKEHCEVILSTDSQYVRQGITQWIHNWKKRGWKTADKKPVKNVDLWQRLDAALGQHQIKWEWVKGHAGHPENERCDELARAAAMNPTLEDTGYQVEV
Put plainly: enzyme reaction in vitro. The following applies: purified recombinant protein, protein details: BRL, DNA:RNA hybrid.

No signal at the amounts used counts as a negative. Where a protein sequence is shown, tags need not be part of it. Construct, isoform or probe ends are uncertain for at least one entry.

Turning to “TGGGGCTGCATG [12-Me5-1 : ALA-D RNA hybrid]”, the “activity on this sequence” value (3' methylphosphonate linkage at positions 2,4,6,8,10, not an RNase H substrate, label: 32P RNA, variant of 12-P-1 : ALA-D RNA hybrid) is “not active”.
For the sequence “TGACTTAGCTGCAT [14-Me5b-3 : ALA-D RNA hybrid]”, the “activity on this sequence” value (3' methylphosphonate linkage at positions 2,4,6,8,13, RNase H substrate, cleavage incomplete, label: 32P …, variant of 14-P-3 : ALA-D RNA hybrid) is recorded as “active”.
Take “TGGGGCTGCATG [12-Me5b-1 : ALA-D RNA hybrid]”: the “activity on this sequence” value (3' methylphosphonate linkage at positions 2,5,7,9,11, not an RNase H substrate, label: 32P RNA, variant of 12-P-1 : ALA-D RNA hybrid) is given as “not active”.
On to “TGACTTAGCTGCAT [14-Me5a-3 : ALA-D RNA hybrid]”, for which the “activity on this sequence” value (3' methylphosphonate linkage at positions 2,4,6,10,12, RNase H substrate, cleavage incomplete, label: 32P RNA, variant of 14-P-3 : ALA-D RNA …) is given as “active”.
“TGACTTAGCTGCAT [14-C-3 : ALA-D RNA hybrid]”: the “activity on this sequence” value (3' methylphosphonate linkage at C4,C9,C12, RNase H substrate, cleavage incomplete, label: 32P RNA, variant of 14-P-3 : ALA-D RNA …) was “active”.
As to “TGGGGCTGCATG [12-Me10-1 : ALA-D RNA hybrid]”, for the setting “3' methylphosphonate linkage at positions 2-11, not an RNase H substrate, label: 32P RNA, variant of 12-P-1 : ALA-D RNA hybrid”, the “activity on this sequence” value is on record as “not active”.
For the sequence “CTGGGGCTGCAT [12-Me5a-1 : ALA-D RNA hybrid]”, under “3' methylphosphonate linkage at positions 3,4,7,9,11, most of RNA cleaved, label: 32P RNA, variant of 12-P-1 : ALA-D RNA hybrid”, the “activity on this sequence” value is “active”.
As for “TGACTTAGCTGCAT [14-Me6a-3 : ALA-D RNA hybrid]”, under “3' methylphosphonate linkage at positions 2,4,6,8,10,12, not a substrate up to 10 ug/ml, label: 32P RNA, variant of 14-P-3 : ALA-D RNA hybrid”, the “activity on this sequence” value is reported as “not active”.
In the case of “TGGGGCTGCATG [12-Me4-1 : ALA-D RNA hybrid]”, the “activity on this sequence” value (3' methylphosphonate linkage at positions 2,6,8,10, most of RNA cleaved, label: 32P RNA, variant of 12-P-1 : ALA-D RNA hybrid) was “active”.
Regarding “TGACTTAGCTGCAT [14-A-3 : ALA-D RNA hybrid]”, the “activity on this sequence” value (3' methylphosphonate linkage at A3,A7,A13, RNase H substrate, cleavage incomplete, label: 32P RNA, variant of 14-P-3 : ALA-D RNA …) was “active”.
